Data published in paper PMC5788634.
Results are given in words; binding and its absence hold for the method and conditions named. For some of these results: Binding seen in cells or lysates may run through a third protein. Some binding calls cover weakened binding; strength is not graded here. Tags and fused reporters may be left off the sequences shown. Values belong to the molecule of their own block, whether it stands above or below them.

The chains behind the UniProt entries cited, without tags or fusion partners. Residues count along the entry.
UniProt P19338: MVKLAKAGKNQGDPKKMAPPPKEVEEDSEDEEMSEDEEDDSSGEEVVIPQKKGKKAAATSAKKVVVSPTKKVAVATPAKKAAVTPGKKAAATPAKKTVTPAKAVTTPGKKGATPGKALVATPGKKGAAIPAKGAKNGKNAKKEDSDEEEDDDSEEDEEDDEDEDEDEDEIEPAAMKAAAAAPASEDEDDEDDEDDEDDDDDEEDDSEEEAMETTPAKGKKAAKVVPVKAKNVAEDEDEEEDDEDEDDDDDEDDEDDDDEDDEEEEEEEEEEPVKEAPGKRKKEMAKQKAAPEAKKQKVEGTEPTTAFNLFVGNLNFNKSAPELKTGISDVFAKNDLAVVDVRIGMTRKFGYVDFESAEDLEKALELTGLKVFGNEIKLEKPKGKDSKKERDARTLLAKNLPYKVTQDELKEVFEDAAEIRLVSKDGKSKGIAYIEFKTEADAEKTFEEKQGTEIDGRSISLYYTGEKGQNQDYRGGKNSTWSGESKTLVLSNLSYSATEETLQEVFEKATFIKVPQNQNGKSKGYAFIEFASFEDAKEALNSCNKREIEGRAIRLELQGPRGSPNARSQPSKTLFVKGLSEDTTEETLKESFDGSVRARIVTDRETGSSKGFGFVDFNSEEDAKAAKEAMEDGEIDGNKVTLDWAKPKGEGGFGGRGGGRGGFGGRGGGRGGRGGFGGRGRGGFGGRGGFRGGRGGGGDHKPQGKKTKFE
UniProt P05106, residues 27-788: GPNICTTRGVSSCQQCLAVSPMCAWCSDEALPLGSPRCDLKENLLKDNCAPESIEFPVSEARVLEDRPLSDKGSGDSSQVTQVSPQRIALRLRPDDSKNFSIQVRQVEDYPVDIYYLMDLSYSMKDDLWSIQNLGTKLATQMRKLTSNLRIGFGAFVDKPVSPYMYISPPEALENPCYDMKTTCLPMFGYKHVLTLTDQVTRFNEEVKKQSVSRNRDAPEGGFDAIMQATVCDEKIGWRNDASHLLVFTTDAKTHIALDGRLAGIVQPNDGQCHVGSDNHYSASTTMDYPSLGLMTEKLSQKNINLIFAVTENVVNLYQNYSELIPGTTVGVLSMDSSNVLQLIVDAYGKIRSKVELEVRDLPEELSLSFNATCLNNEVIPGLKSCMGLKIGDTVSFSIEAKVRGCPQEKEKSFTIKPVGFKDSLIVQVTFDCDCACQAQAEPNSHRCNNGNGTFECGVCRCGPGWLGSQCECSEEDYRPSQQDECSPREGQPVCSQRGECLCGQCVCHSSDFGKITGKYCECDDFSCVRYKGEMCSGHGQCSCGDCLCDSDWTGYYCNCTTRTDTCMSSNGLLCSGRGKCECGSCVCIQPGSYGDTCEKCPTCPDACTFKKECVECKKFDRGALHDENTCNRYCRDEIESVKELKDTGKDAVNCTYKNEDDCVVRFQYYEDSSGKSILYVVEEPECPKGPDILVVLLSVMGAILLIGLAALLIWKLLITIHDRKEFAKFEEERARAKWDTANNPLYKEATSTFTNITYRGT

How the values were obtained:
[1] = molecular target: T1, Recombinant human kallistatin with a his-tag (human) (UniProt P29622); assay: co-IP; HUVECs treated with kallistatin for 4 h; cell lysates precipitated with rabbit anti-kallistatin antibody (control rabbit immunoglobulin) and protein A beads, 4°C overnight; immunoblot; only the target purified
T1 sequence: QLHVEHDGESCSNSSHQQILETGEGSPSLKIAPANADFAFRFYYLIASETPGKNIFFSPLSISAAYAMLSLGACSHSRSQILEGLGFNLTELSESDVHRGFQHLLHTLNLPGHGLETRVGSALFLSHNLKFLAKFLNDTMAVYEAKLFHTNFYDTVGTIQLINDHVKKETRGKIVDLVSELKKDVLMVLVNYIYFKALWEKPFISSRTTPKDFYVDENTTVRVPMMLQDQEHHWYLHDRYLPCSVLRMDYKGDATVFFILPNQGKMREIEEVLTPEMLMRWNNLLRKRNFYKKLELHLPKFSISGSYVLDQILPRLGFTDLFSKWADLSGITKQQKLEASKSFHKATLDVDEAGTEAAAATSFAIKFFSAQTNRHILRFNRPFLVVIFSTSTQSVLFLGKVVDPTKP

[2] = molecular target: T1, Recombinant human kallistatin with a his-tag (human); assay: pull-down; his-tagged kallistatin (3 mg) on Ni-NTA affinity beads, incubated with HUVEC membrane proteins (10 mg) for 16 h at 4°C; washed with PBS; eluted fractions on SDS-PAGE; bands identified by MALDI-TOF peptide mass fingerprinting and confirmed by immunoblot; Ni-NTA beads without kallistatin as control; only the target purified
[3] = molecular target: nucleolin (human (endogenous in HUVEC)) (UniProt P19338); assay: co-IP; kallistatin-nucleolin complex precipitated by an anti-nucleolin antibody and detected with an anti-kallistatin antibody; with increasing concentrations of soluble heparin or a 1,000-fold excess of sodium sulfate; only the binder purified
[4] = molecular target: nucleolin (human (endogenous in HUVEC)) (UniProt P19338); assay: flow cytometry on cells; HUVECs transfected with siRNA (nucleolin, integrin β3, MMP2 or scrambled) for 48 h, incubated with kallistatin; cell surface kallistatin detected with anti-kallistatin antibody and Alexa Fluor 647-labeled goat IgG; only the binder purified

binding [1]: binds
binding [2]: binds
Molecule: integrin β3 (from UniProt P05106 27-788) (receptor)

binding [3]: binds
binding [4]: binds
B1: Recombinant human kallistatin with a his-tag (protein, UniProt P29622 21-427)
chain: T1 sequence
